# According to the supplement of paper PMC12067093, “Discovery and optimisation of a covalent ligand for TRIM25 and its application to targeted protein ubiquitination” (Chemical Science, 2025):
# Some of the results follow.
# Compound: CC1Cc2ccccc2N1C(=O)C1CCCN(C1)C(=O)CCl (mixture of isomers) [TRIM25 ligand 11 (diastereomer mixture)]
# Experiment: probe-labelled cysteine peptide fold change vs DMSO (competition) (log2 fold change); higher = less target engagement (more negative = stronger competition)
# Details: THP-1, incubation time: 4 h
# 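Further: competitive chemoproteomic profiling in live THP-1 cells with an iodoacetamide desthiobiotin (IA-DTB) probe, comparing probe-labelled peptide intensities in compound-treated cells against DMSO-treated controls.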
Target,probe-labelled cysteine peptide fold change (10 µM),probe-labelled cysteine peptide fold change (50 µM)
COPA_P53621_41_MCTLIDK (UniProt P53621),0.285,0.306
CNTRL_Q7Z7A1_1451_LLAEAESELSCTK (UniProt Q7Z7A1),0.167,-0.0151
CNNM4_Q6P4Q7_383_TVEDIMTQLQDCFMIR (UniProt Q6P4Q7),-0.0845,0.0951
COPG1_Q9Y678_516_RCVMDDDNEVR (UniProt Q9Y678),0.169,0.116
COPB1_P53618_466_GALWILGEYCSTK (UniProt P53618),-0.148,0.00929
CNOT1_A5YKK6_1420_IAMTTCEQIVR (UniProt A5YKK6),0.095,0.0403
COPA_P53621_1148_KILSACEK (UniProt P53621),-0.616,-0.459
CMAS_Q8NFW8_405_AVGYICK (UniProt Q8NFW8),0.0445,0.0947
CNBP_P62633_140_CGETGHVAINCSK (UniProt P62633),0.0925,0.134
COPS3_Q9UNS2_149_MQMNTNQLTSIHADLCQLCLLAK (UniProt Q9UNS2),0.132,0.0269
CMTR1_Q8N1G2_191_KMIIEDETEFCGEELLHSVLQCK (UniProt Q8N1G2),-0.196,-0.272
CNTRL_Q7Z7A1_639_GQATQAQNECR (UniProt Q7Z7A1),-0.0299,0.264
CNOT1_A5YKK6_50_CLFSHVDFSGDGK (UniProt A5YKK6),0.00225,0.134
COMMD4_Q9H0A8_107_EHAASLCR (UniProt Q9H0A8),-0.02,0.0371
CNOT9_Q92600_252_QCLPDQLK (UniProt Q92600),0.0631,0.169
COL4A3BP_Q9Y5P4_84_AVITPHDFDECRFDISVNDSVWYLR (UniProt Q9Y5P4),-0.17,-0.155
COPS6_Q7L5N1_143_QVCEIIESPLFLK (UniProt Q7L5N1),0.303,0.269
COPS7B_Q9H9Q2_181_TLHEWCDGCEAVLLGIEQQVLR (UniProt Q9H9Q2),-0.0599,0.0351
COMT_P21964_145_LITIEINPDCAAITQR (UniProt P21964),-0.025,-0.045
COMT_P21964_207_YLPDTLLLEECGLLR (UniProt P21964),-0.0193,0.143
COLGALT1_Q8NBJ5_283_QAEVQMYVCNK (UniProt Q8NBJ5),0.453,0.412

# Reprinted from the listing for reference:
Target,probe-labelled cysteine peptide fold change (10 µM),probe-labelled cysteine peptide fold change (50 µM)
COPB1_P53618_466_GALWILGEYCSTK (UniProt P53618),-0.148,0.00929
CNOT1_A5YKK6_1420_IAMTTCEQIVR (UniProt A5YKK6),0.095,0.0403
COPA_P53621_1148_KILSACEK (UniProt P53621),-0.616,-0.459
CMAS_Q8NFW8_405_AVGYICK (UniProt Q8NFW8),0.0445,0.0947
CNBP_P62633_140_CGETGHVAINCSK (UniProt P62633),0.0925,0.134

# The results go on:

Target,probe-labelled cysteine peptide fold change (10 µM),probe-labelled cysteine peptide fold change (50 µM)
COG2_Q14746_579_IIQDLSDSCFGFLK (UniProt Q14746),-0.00864,-0.00224
COG4_Q9H9E3_554_MSFLVTLNNVEVCSENISTLK (UniProt Q9H9E3),0.146,-0.0856
CNPY2_Q9Y2B0_171_RTDLCDHALHISHDEL (UniProt Q9Y2B0),0.118,-0.0283
CNBP_P62633_98_EQCCYNCGKPGHLAR (UniProt P62633),-0.12,-0.147
CNOT1_A5YKK6_219_CPVVLAPLLYPEK (UniProt A5YKK6),-0.118,-0.241
COG3_Q96JB2_363_ELLLGPSIACTVAELTSQNNRDHCALVR (UniProt Q96JB2),-0.436,0.793
COL18A1_P39060_1604_GADFQCFQQAR (UniProt P39060),0.115,0.0994
COPA_P53621_245_AWEVDTCR (UniProt P53621),-0.0469,-0.0634
CNOT4_O95628_56_IRTDENGLCPACR (UniProt O95628),-0.144,-0.114
COL4A3BP_Q9Y5P4_65_SEDETEYGCR (UniProt Q9Y5P4),-0.0512,0.00106
CNOT1_A5YKK6_1706_AYGSPWCNK (UniProt A5YKK6),0.0689,0.0924
COPB2_P35606_351_DMGSCEIYPQTIQHNPNGR (UniProt P35606),0.0949,-0.232
COP1_Q8NHY2_704_DRKEDDTNEFVSAVCWR (UniProt Q8NHY2),-0.384,0.0888
CMC1_Q7Z7K0_31_CSEQVQDFTK (UniProt Q7Z7K0),-0.0323,-0.32
COIL_P38432_126_AFQLEEGEETEPDCK (UniProt P38432),-0.01,0.0566
CNBP_P62633_161_CGESGHLAR (UniProt P62633),0.218,0.0528
COPB2_P35606_689_CQFGLAQECLHHAQDYGGLLLLATASGNANMVNK (UniProt P35606),0.0724,0.143
CMSS1_Q9BQ75_55_ECFLIQPK (UniProt Q9BQ75),0.12,0.0916
COA7_Q96BR5_111_SIAACHNVGLLAHDGQVNEDGQPDLGK (UniProt Q96BR5),-0.0928,-0.242
CNOT2_Q9NZN8_408_FASPWASSPCRPQDIDFHVPSEYLTNIHIR (UniProt Q9NZN8),-0.0206,0.184
CNN2_Q99439_175_CASQSGMTAYGTR (UniProt Q99439),-0.144,-0.0189

Target,probe-labelled cysteine peptide fold change (10 µM),probe-labelled cysteine peptide fold change (50 µM)
COPG2_Q9UBF2_446_EAGLAHLCEFIEDCEHTVLATK (UniProt Q9UBF2),0.0149,0.000499
COQ5_Q5HYK3_170_VVVCDINK (UniProt Q5HYK3),0.0186,0.0689
COMTD1_Q86VU5_191_ENCSAYYER (UniProt Q86VU5),0.0457,0.283
COQ8A_Q8NI60_406_RELALECDYQR (UniProt Q8NI60),0.197,-0.0307
COPG2_Q9UBF2_420_AIVDCIISIVEENPESK (UniProt Q9UBF2),0.359,0.12
COL4A3BP_Q9Y5P4_185_YFDACADAVSKDELQR (UniProt Q9Y5P4),-0.0647,0.0677
COPB1_P53618_888_ALSGYCGFMAANLYAR (UniProt P53618),-0.151,-0.00451
CMPK2_Q5EBM0_226_AVLEECTSFIPEAR (UniProt Q5EBM0),-0.0816,-0.12
COQ3_Q9NZJ6_155_ILDVGCGGGLLTEPLGR (UniProt Q9NZJ6),-0.269,-0.3
COPB1_P53618_102_LLHEMILVCDAYR (UniProt P53618),-0.0079,0.0486
CNNM4_Q6P4Q7_108_STSCLELTK (UniProt Q6P4Q7),-0.0265,-0.0149
COPG1_Q9Y678_735_DCDPTTGETDDEGYEDEYVLEDLEVTVADHIQK (UniProt Q9Y678),0.0208,-0.00395
COPA_P53621_380_FPVFNMSYNPAENAVLLCTR (UniProt P53621),-0.0969,0.0467
CNTRL_Q7Z7A1_1423_HHEDIVDEIECIEK (UniProt Q7Z7A1),0.0444,0.0739
COPS4_Q9BT78_255_CQQLAAYGILEK (UniProt Q9BT78),-0.00136,-0.0283
COL4A3BP_Q9Y5P4_575_DNILCK (UniProt Q9Y5P4),0.0373,0.157
CNP_P09543_49_DKPELQFPFLQDEDTVATLLECK (UniProt P09543),-0.121,-0.0575
COPA_P53621_453_KVQVPNCDEIFYAGTGNLLLR (UniProt P53621),-0.0464,0.105
COG3_Q96JB2_334_IPEYQQLLNDIHQCYLDQR (UniProt Q96JB2),0.169,0.116
COMT_P21964_223_KGTVLLADNVICPGAPDFLAHVR (UniProt P21964),0.0121,0.0339
CNN2_Q99439_164_AGQCVIGLQMGTNK (UniProt Q99439),-0.108,-0.0857

Target,probe-labelled cysteine peptide fold change (10 µM),probe-labelled cysteine peptide fold change (50 µM)
COPA_P53621_1169_NPTDAYQLNYDMHNPFDICAASYRPIYR (UniProt P53621),0.0527,-0.0242
COMT_P21964_83_ILNHVLQHAEPGNAQSVLEAIDTYCEQK (UniProt P21964),0.0541,-0.00479
CNOT10_Q9H9A5_665_CLHQAASMIHPK (UniProt Q9H9A5),-0.0712,-0.0399
COPG2_Q9UBF2_230_SQFAYCMLIR (UniProt Q9UBF2),-0.262,0.206
COG3_Q96JB2_349+363_ELLLGPSIACTVAELTSQNNRDHCALVR (UniProt Q96JB2),0.181,0.179
CNBP_P62633_77_DCDLQEDACYNCGR (UniProt P62633),-0.0579,0.0558
COPG1_Q9Y678_516_CVMDDDNEVR (UniProt Q9Y678),0.0615,0.0379
COA5_Q86WW8_24_EDLGACLLQSDCVVQEGK (UniProt Q86WW8),-0.149,0.00124
COPA_P53621_1191_CPLSGACYSPEFK (UniProt P53621),-0.236,-0.0658
CNOT8_Q9UFF9_148_HEEEGIDTLHFAELLMTSGVVLCDNVK (UniProt Q9UFF9),0.648,0.338
CMPK2_Q5EBM0_40_FVLELPDCTLAHFALGADAPGDADAPDPR (UniProt Q5EBM0),0.0258,-0.0726
COPA_P53621_1013_LQLCYQLTTVGK (UniProt P53621),0.164,0.274
CMIP_Q8IY22_363_NGCQQPCDR (UniProt Q8IY22),-0.167,-0.195
CMSS1_Q9BQ75_121_LVIELEELNLPDSCFLK (UniProt Q9BQ75),-0.0138,-0.108
COG8_Q96MW5_165_HTEILEILEIPQLMDTCVR (UniProt Q96MW5),0.0274,-0.0196
CNTLN_Q9NXG0_228_ECVQNK (UniProt Q9NXG0),-0.023,-0.0167
CNBP_P62633_97_EREQCCYNCGKPGHLAR (UniProt P62633),-0.318,-0.318
COASY_Q13057_144_YATSCYSCCPR (UniProt Q13057),-0.192,-0.216
CNBP_P62633_119_CYSCGEFGHIQK (UniProt P62633),-0.0297,-0.0532
COG3_Q96JB2_349_ELLLGPSIACTVAELTSQNNR (UniProt Q96JB2),-0.138,-0.147
COG6_Q9Y2V7_354_HVTTQGVEENIQEVVGHITEGVCRPLK (UniProt Q9Y2V7),0.137,-0.0512
